According to PubChem BioAssay AID330 (DTP/NCI, 2004):
The list is a part of this screen's results and no random one: it is rich in T/C values a quarter to a half above the control, in often repeated tests (any T/C) and in doses without a T/C. Further doses and runs are listed elsewhere. T/C is the treated group as % of the vehicle group. Some entries give survivors of the animals treated and no T/C: the source files T/C as zero there, which appears to mark a toxic dose or a test without result, not a measured value. Some survivor counts are full or nearly so, which does not show that the dose was tolerated: survival well below the control is almost never listed, so the zero probably covers shortened survival too. Survivors were counted at the toxicity check, usually on the fifth day, unless a day is given; later deaths do not show. Schedule codes are those of the source, read here as Q, the interval in days (D) or hours (H), X, the number of doses. Some entries hold several experiments; their values stand side by side, smallest first. Where survival is the endpoint, the PubChem record calls one and a half times the control and up active, and a quarter to a half above the control has no call in these data; cut-offs in other NCI protocols can differ. Some T/C values are followed by the survivors on the day toxicity was checked, most often the fifth; where none is given, no animal had died by that day.

System: P388 leukemia ip, CD2F1 mice, survival T/C
Test: NCI In Vivo Anticancer Drug Screen. Data for tumor model P388 Leukemia (intraperitoneal) in CD2F1 (CDF1) mice
Conditions: T/C endpoint: median survival time, higher T/C = longer survival
[1] = dose: 100.0 mg/kg/injection, schedule: Q01DX005 (ip), vehicle: saline with Tween-80
[2] = dose: 200.0 mg/kg/injection, schedule: Q01DX005 (ip), vehicle: saline with Tween-80
[3] = dose: 100.0 mg/kg/injection, schedule: Q01DX001 (ip), vehicle: Klucel (hydroxypropylcellulose) (HPC)
[4] = dose: 200.0 mg/kg/injection, schedule: Q01DX001 (ip), vehicle: Klucel (hydroxypropylcellulose) (HPC)
[5] = dose: 1.0 mg/kg/injection, schedule: Q01DX009 (ip), vehicle: saline
[6] = dose: 100.0 mg/kg/injection, schedule: Q01DX009 (ip), vehicle: saline
[7] = dose: 200.0 mg/kg/injection, schedule: Q01DX009 (ip), vehicle: saline

SMILES: CC1CC(C)(O)CC(C(O)CC2CC(=O)NC(=O)C2)C1=O (stereo unspecified)
- T/C (dose: 77.8 micrograms/kg/injection, schedule: Q01DX009 (ip), vehicle: saline): 140 % of control
- T/C (dose: 130.0 micrograms/kg/injection, schedule: Q01DX009 (ip), vehicle: saline): 138 and 141 % of control
- survivor count (dose: 360.0 micrograms/kg/injection, schedule: Q01DX009 (ip), vehicle: saline): 8 of 8
- T/C (dose: 467.0 micrograms/kg/injection, schedule: Q04DX003 (ip), vehicle: saline): 131 % of control
- survivor count (dose: 600.0 micrograms/kg/injection, schedule: Q01DX009 (ip), vehicle: saline): 7 of 8 and 8 of 8
- T/C (dose: 778.0 micrograms/kg/injection, schedule: Q04DX003 (ip), vehicle: saline): 135 % of control
- T/C (dose: 1300.0 micrograms/kg/injection, schedule: Q04DX003 (ip), vehicle: saline): 134 % of control
- T/C (dose: 2160.0 micrograms/kg/injection, schedule: Q04DX003 (ip), vehicle: saline): 149 % of control
- T/C (dose: 3600.0 micrograms/kg/injection, schedule: Q04DX003 (ip), vehicle: saline): 144 % of control [7 of 8 alive]

SMILES: C[C@@]12N[C@H]3S[C@]1(C)c1ccccc1N2C[C@@H]3C#N
- survivor count [1]: 5 of 5
- survivor count [2]: 5 of 5

SMILES: CN1CCN(CCCN(c2cccc(C(F)(F)F)c2)c2cccc(C(F)(F)F)c2)CC1
- survivor count [3]: 0 of 6
- survivor count [4]: 0 of 6
- survivor count (dose: 400.0 mg/kg/injection, schedule: Q01DX001 (ip), vehicle: Klucel (hydroxypropylcellulose) (HPC)): 0 of 6

SMILES: CC(=O)On1nnc2ccccc2c1=O
- survivor count (dose: 50.0 mg/kg/injection, schedule: Q01DX009 (ip), vehicle: distilled water + Tween-80): 5 of 6
- survivor count (dose: 100.0 mg/kg/injection, schedule: Q01DX009 (ip), vehicle: distilled water + Tween-80): 4 of 6

SMILES: COC(C(=O)C(O)C(C)O)C1Cc2cc3cc(OC4CC(OC5CC(O)C(O)C(C)O5)C(O)C(C)O4)c(C)c(O)c3c(O)c2C(=O)C1OC1CC(OC2CC(O)C(OC3CC(C)(O)C(O)C(C)O3)C(C)O2)C(O)C(C)O1 (stereo unspecified)
- T/C (dose: 0.13 mg/kg/injection, schedule: Q01DX009 (ip), vehicle: saline): 137 % of control
- T/C (dose: 0.25 mg/kg/injection, schedule: Q01DX009 (ip), vehicle: saline): 147 % of control
- T/C (dose: 1.0 mg/kg/injection, schedule: Q01DX001 (ip), vehicle: saline): 126 % of control
- T/C [5]: 131 % of control
- survivor count [5]: 8 of 10
- T/C (dose: 1.0 mg/kg/injection, schedule: Q04DX003 (ip), vehicle: saline): 132 % of control [7 of 10 alive]
- survivor count (dose: 2.0 mg/kg/injection, schedule: Q01DX001 (ip), vehicle: saline): 3 of 10
- survivor count (dose: 2.0 mg/kg/injection, schedule: Q04DX003 (ip), vehicle: saline): 0 of 10
- survivor count (dose: 4.0 mg/kg/injection, schedule: Q04DX003 (ip), vehicle: saline): 0 of 10

SMILES: O=C(C1=C(NCc2ccccc2)CCCC1)c1ccccc1
- survivor count [6]: 3 of 6
- survivor count [7]: 2 of 6

SMILES: COc1cccc2c1C(=O)c1c(O)c3c(c(O)c1C2=O)CC(O)(C(C)NCCN(C)C)CC3OC1CC(N)C(O)C(C)O1 (stereo unspecified)
- T/C (dose: 2.5 mg/kg/injection, schedule: Q01DX009 (ip), vehicle: water): 125 % of control
- T/C (dose: 5.0 mg/kg/injection, schedule: Q01DX009 (ip), vehicle: other): 130 % of control
- T/C (dose: 5.0 mg/kg/injection, schedule: Q01DX009 (ip), vehicle: water): 134 % of control
- T/C (dose: 10.0 mg/kg/injection, schedule: Q01DX009 (ip), vehicle: other): 144 % of control
- T/C (dose: 10.0 mg/kg/injection, schedule: Q01DX009 (ip), vehicle: water): 125 % of control
- T/C (dose: 20.0 mg/kg/injection, schedule: Q01DX009 (ip), vehicle: water): 139 % of control
- T/C (dose: 80.0 mg/kg/injection, schedule: Q01DX009 (ip), vehicle: other): 148 % of control

SMILES: CC(=O)c1nc(-c2ccccc2)[nH]c1C
- survivor count (dose: 400.0 mg/kg/injection, schedule: Q04DX003 (ip), vehicle: saline with Tween-80): 2 of 6

SMILES: CC(=O)Nc1c(Cl)c(Cl)c2c(c1Cl)Cc1cc(Cl)ccc1-2
- survivor count (dose: 12.5 mg/kg/injection, schedule: Q01DX009 (ip), vehicle: suspension in saline): 6 of 6
- survivor count [6]: 5 of 6

SMILES: O=C(NCC(O)CNC(=O)Nc1ccc(C2=NCC(O)CN2)cc1)Nc1ccc(C2=NCC(O)CN2)cc1 (stereo unspecified)
- survivor count [1]: 1 of 6
- survivor count [2]: 0 of 6

SMILES: CC/C(=C(/CC)c1ccc(OCC(=O)N/N=C2\CCC3C4CCc5cc(O)ccc5C4CCC23C)cc1)c1ccc(OCC(=O)N/N=C2/CCC3C4CCc5cc(O)ccc5C4CCC23C)cc1 (stereo unspecified)
- survivor count [3]: 5 of 6

SMILES: COC(=O)C12Oc3ccc(-c4ccc5c(c4O)C(O)=C4C(=O)CC(C)C(O)C4(C(=O)OC)O5)c(O)c3C(O)=C1C(=O)CC(C)C2O (stereo unspecified)
- survivor count (dose: 6.25 mg/kg/injection, schedule: Q01DX009 (ip), vehicle: saline with Tween-80): 6 of 6
- survivor count (dose: 12.5 mg/kg/injection, schedule: Q01DX009 (ip), vehicle: saline with Tween-80): 6 of 6
- T/C (dose: 12.5 mg/kg/injection, schedule: Q04DX003 (ip), vehicle: saline with Tween-80): 127 % of control
- survivor count (dose: 25.0 mg/kg/injection, schedule: Q01DX009 (ip), vehicle: saline with Tween-80): 5 of 6

SMILES: O=C(Cc1ccc(C2=NCCN2)cc1[N+](=O)[O-])c1ccc(C2=NCCN2)cc1
- survivor count (dose: 3.12 mg/kg/injection, schedule: Q01DX005 (ip), vehicle: saline): 3 of 6 and 6 of 6
- survivor count (dose: 12.5 mg/kg/injection, schedule: Q01DX005 (ip), vehicle: saline): 2 of 6
- survivor count (dose: 50.0 mg/kg/injection, schedule: Q01DX005 (ip), vehicle: saline): 0 of 6
- survivor count (dose: 100.0 mg/kg/injection, schedule: Q01DX005 (ip), vehicle: saline): 0 of 6
- survivor count (dose: 200.0 mg/kg/injection, schedule: Q01DX005 (ip), vehicle: saline): 0 of 6

SMILES: O=C(O)CBr
- survivor count (dose: 50.0 mg/kg/injection, schedule: Q01DX005 (ip), vehicle: other): 3 of 6
- survivor count (dose: 100.0 mg/kg/injection, schedule: Q01DX005 (ip), vehicle: other): 0 of 6

SMILES: COc1ccc2cc1-c1cc(ccc1O)CCC(O)CC1CCCC(CC(O)CC2)N1 (stereo unspecified)
- survivor count (dose: 60.0 mg/kg/injection, schedule: Q01DX009 (ip), vehicle: Klucel (hydroxypropylcellulose) (HPC)): 5 of 6
- survivor count (dose: 120.0 mg/kg/injection, schedule: Q01DX009 (ip), vehicle: Klucel (hydroxypropylcellulose) (HPC)): 0 of 6

SMILES: N#CC(C(=O)C(=O)Nc1ccc(Cl)cc1Cl)c1c(Cl)cccc1Cl (stereo unspecified)
- survivor count (dose: 240.0 mg/kg/injection, schedule: Q01DX005 (ip), vehicle: saline with Tween-80): 1 of 6

SMILES: Cc1ncc2n1-c1ccc(Cl)cc1C(c1ccccc1F)=NC2
- survivor count [7]: 3 of 6

SMILES: CCOc1nc2ccc(NC(C)CN3CCN(CCc4ccccc4)CC3)cc2s1 (stereo unspecified)
- survivor count (dose: 200.0 mg/kg/injection, schedule: Q01DX005 (ip), vehicle: Klucel (hydroxypropylcellulose) (HPC)): 0 of 6

SMILES: COc1ccc(Cc2cc3c(cc2OCC(N)=O)OCO3)cc1
- survivor count (dose: 25.0 mg/kg/injection, schedule: Q01DX005 (ip), vehicle: saline with Tween-80): 6 of 6
- survivor count (dose: 50.0 mg/kg/injection, schedule: Q01DX005 (ip), vehicle: saline with Tween-80): 6 of 6
- survivor count [1]: 6 of 6
- survivor count [2]: 6 of 6

SMILES: N#CC(CCCC(C#N)c1ccccc1)c1ccccc1 (stereo unspecified)
- survivor count [4]: 3 of 6

SMILES: COc1cc(C2=N/C(=C/c3cccc(O)c3O)C(=O)O2)cc(OC)c1OC
- survivor count (dose: 25.0 mg/kg/injection, schedule: Q01DX009 (ip), vehicle: Klucel (hydroxypropylcellulose) (HPC)): 6 of 6
- survivor count (dose: 50.0 mg/kg/injection, schedule: Q01DX009 (ip), vehicle: Klucel (hydroxypropylcellulose) (HPC)): 6 of 6
- survivor count (dose: 100.0 mg/kg/injection, schedule: Q01DX009 (ip), vehicle: Klucel (hydroxypropylcellulose) (HPC)): 6 of 6
- survivor count (dose: 200.0 mg/kg/injection, schedule: Q01DX009 (ip), vehicle: Klucel (hydroxypropylcellulose) (HPC)): 6 of 6

SMILES: CCc1ccc2nc3ccccc3c(NCCCCCCNc3c4ccccc4nc4ccc(CC)cc34)c2c1
- survivor count (dose: 20.0 mg/kg/injection, schedule: Q01DX009 (ip), vehicle: other): 1 of 6
